No constants are given. Whether binding was seen depends on the method and setting. Binding calls can cover weak binding; strength is not graded here.

Assay [1] concerns the target response regulator ChrA (BACTH fusion) (Corynebacterium glutamicum ATCC 13032) (UniProt Q8NP17). In words: two-hybrid; BACTH plate assay in E. coli BTH101; T25 and T18 fusions (histidine kinases as C-terminal fusions); spotted on LB with X-Gal, kanamycin, ampicillin, 0.5 mM IPTG, about 24 h at 30°C; blue colonies mean interaction.
For assay [2] the target is unchanged. In words: two-hybrid; BACTH quantitative β-galactosidase assay (Miller units) in E. coli BTH101; T25 and T18 fusions (histidine kinases as C-terminal fusions); triplicates in LB with 0.5 mM IPTG, ONPG.

As to “histidine kinase ChrS (C-terminal BACTH fusions) (from UniProt Q8NP16)”, the binding entry in assay [1] and in assay [2] was “binds” each time.
